Experimental data from US9878054B2 (Tufts Medical Center, Inc., priority 2012, dated 2018).

Experiment: general procedure: Fmoc solid-phase peptide synthesis
Conditions: whole synthesis, reverse-phase HPLC; MALDI mass spectrometry, TFA salt (crude), exchanged with ammonium acetate

palmitate-KKSRALF-NH2
final HPLC purity: 99.1%
